Data on 1 sequence can be found in publication PMC10708393, “The Fabrication of a Probe-Integrated Electrochemiluminescence Aptasensor Based on Double-Layered Nanochannel Array with Opposite Charges for the Sensitive Determination of C-Reactive Protein”.

Data set [1] deals with carbohydrate antigen 19-9 (CA19-9). The data set can be described thus: electrochemiluminescence aptasensor. As to conditions: selectivity test, no significant ECL decrease; 5'-NH2; CRP incubation 4 °C, 1 h on BSA-blocked aptamer electrode; wash 0.01 M PBS pH 7.4; ECL read in 3 mM TPA, 0.01 M PBS pH 7.4, room temperature; commercial protein; single-stranded DNA.
For the next data set, the system named is serum amyloid A (SAA). Nature of the data set: electrochemiluminescence aptasensor. As to conditions: selectivity test, no significant ECL decrease; 5'-NH2; CRP incubation 4 °C, 1 h on BSA-blocked aptamer electrode; wash 0.01 M PBS pH 7.4; ECL read in 3 mM TPA, 0.01 M PBS pH 7.4, room temperature; commercial protein; single-stranded DNA.

For at least one entry, the source does not settle the construct or the ends of the probe. No signal at the amounts used counts as a negative.

As to “CGAAGGGGATTCGAGGGGTGATTGCGTGCTCCATTTGGTG [CRP aptamer]”, the binding result (in data set [1]; with serum amyloid A (SAA)) was “no binding” each time.
